Assay results from PubChem BioAssay AID2685 (National Center for Advancing Translational Sciences (NCATS), 2010).
The list shows a part of the results. Further columns of the screen follow, without active or inactive calls. Compounds called inactive in the main read-out are mostly missing here. The note in brackets gives the kind of curve behind each potency; many fits are weak.

Experiment: qHTS Assay for Lipid Storage Modulators in Drosophila S3 Cells;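 for cell number change: cells counted by Cell Tracker Red CMTPX staining in the red channel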
Details: BODIPY lipid droplet fluorescence, 18-24 h; for cell number change: measured here: cell count max response, cells fed with added oleic acid
In short: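 Laser-scanning cytometry quantifies lipid droplet accumulation (500–530 nm total intensity; droplet/cell object ratio) in oleic acid-fed (400 uM added) Drosophila S3 cells treated with a concentration series. 20 uM Triacsin C defined 100% inhibition.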

[1] = measured here: lipid fluorescence (Fed channel) AC50, cells fed with added oleic acid
[2] = measured here: cell number channel AC50, cells fed with added oleic acid

SMILES | cell number change | AC50 [1] | AC50 [2]
Cn1c(SCC(=O)Nc2ccccc2Cl)nnc1C1CC1 | 7.5% |  | 
CC(NC(=O)COC(=O)C1CCN(c2ccc(C(F)(F)F)cn2)CC1)c1ccc(F)cc1 (stereo not given) | -6.88% | 0.651 µM [rising, full curve, poor fit] | 
O=C(Nc1cc(F)ccc1F)C1CCN(S(=O)(=O)c2cccc3nonc23)CC1 |  |  | 1.84 µM [falling, partial curve, poor fit]
COc1cc(OC)cc(-c2nnc(NC(=O)CCS(=O)(=O)c3ccc(F)cc3)o2)c1 | 206% |  | 9.2 µM [rising, partial curve]
CCSc1nncn1/N=C/c1ccc(OC)c(OC)c1 |  |  | 3.66 µM [rising, partial curve]
Cc1c(NS(=O)(=O)c2cc(C(=O)NCc3ccco3)cc(Cl)c2Cl)c(=O)n(-c2ccccc2)n1C |  | 7.31 µM [rising, partial curve] | 
COc1ccc(CSc2nnnn2-c2ccc(C(=O)O)cc2)cc1 | 1.42% | 36.6 µM [rising, partial curve, poor fit] | 
O=C(NS(=O)(=O)Oc1ccc(F)cc1F)OC[C@@H]1CCCN2CCCCC12 (stereo not given in full) | -16.2% |  | 
Cc1cccc(NC(=O)CS(=O)(=O)c2c[nH]c3ccccc23)c1C | -21.5% | 18.4 µM [falling, partial curve] | 
CC(C)[C@@H](NC(=O)OC(C)(C)C)C(=O)NCC1CCC(C(=O)N[C@@H](Cc2ccccc2)C(=O)O)CC1 (stereo not given in full) | 80.6% |  | 29.1 µM [rising, partial curve]
COc1ccc2c(c1)[nH]c1c(=O)n(/N=C/c3ccc(OC)c(CN4CCCC4)c3)cnc12 | 22.1% |  | 0.00461 µM [rising, full curve, poor fit]
COC(=O)c1ccc(Cn2c(CN3CCOCC3)nc3ccccc3c2=O)o1 | 13.2% | 29.1 µM [rising, single point] | 
Cc1nn(CC(=O)Nc2cc(S(=O)(=O)N(C)C)ccc2Cl)c(C)c1[N+](=O)[O-] | -24.8% | 0.651 µM [falling, partial curve] | 
COc1ccc(N2CCN(C3CCCN(Cc4cccc(C(C)=O)c4)C3)CC2)cc1 (stereo not given) | 6.99% |  | 
COc1ccc2cc(CN(CC3CCCO3)S(=O)(=O)c3ccc(C(C)=O)cc3)c(=O)[nH]c2c1 (stereo not given) | 71.8% | 6.51 µM [falling, single point] | 29.1 µM [rising, single point]
Cc1ccc(CN2CCN(Cc3cnc(N4CCOCC4)s3)CC2CCO)o1 (stereo not given) | 14.4% | 14.6 µM [rising, single point] | 
Cc1cnc(NC(=O)C2COc3ccccc3O2)s1 (stereo not given) | 7.81% | 16.4 µM [falling, single point] | 
CC(=O)C1=C(S(=O)(=O)c2ccc(C)cc2)CS(=O)(=O)C1 | -37.7% | 0.116 µM [falling, full curve, poor fit] | 0.411 µM [falling, partial curve]
Cc1ccnc2nc(C(=O)Nc3cc(Cl)ccc3N3CCOCC3)nn12 | -14.7% | 9.2 µM [falling, partial curve] | 
CC(/C=C1\SC(=S)N(NC(=O)c2ccc(O)cc2)C1=O)=C\c1ccccc1 | -63.1% | 6.51 µM [falling, single point] | 32.6 µM [falling, single point]

SMILES | cell number change | AC50 [1] | AC50 [2]
CCc1cc2c(=O)[nH]c(COC)nc2s1 | -9.83% | 0.00411 µM [rising, full curve, poor fit] | 
Cc1cc(Br)ccc1OCC(=O)NNC(=O)c1ccc(NC(=O)C2CC2)cc1 | 21.5% | 0.082 µM [rising, full curve, poor fit] | 0.326 µM [rising, partial curve, poor fit]
Cc1ccc(-c2cc(C(=O)N/N=C/c3ccccc3O)n[nH]2)o1 | -31.7% | 20.6 µM [falling, partial curve] | 29.1 µM [falling, single point]
Cc1ccc(OCC(=O)NCCNC(=O)c2cnccn2)cc1C | 2.42% | 20.6 µM [rising, single point] | 
Cc1cccc(-n2cnc3cc(C(=O)N4CCc5ccccc54)ccc32)c1 | -13.8% | 23.1 µM [falling, partial curve] | 
Cn1cccc1/C=N/n1c(-c2ccc(Cl)cc2Cl)n[nH]c1=S | -54.9% |  | 32.6 µM [falling, partial curve]
COc1ccc(S(=O)(=O)N(CCc2ccccc2)CC(=O)O)cc1 | -37.6% | 16.4 µM [falling, single point] | 3.26 µM [falling, partial curve]
Cc1oc2cc3oc(=O)c(CC(=O)NCCC(=O)O)c(C)c3cc2c1C | 8.33% |  | 
O=C(N/N=C/c1cccc([N+](=O)[O-])c1)C1CC(=O)N(c2ccc(Cl)cc2)C1 (stereo not given) |  | 11.6 µM [rising, partial curve, poor fit] | 
COc1ccccc1N1CCN(C(=S)NC(=O)/C=C/c2ccccc2)CC1 | 0.173% |  | 
CCOc1ccc(NC(=O)[C@@H]2CCCN2C(=O)c2cccs2)cc1S(=O)(=O)N1CCCCC1 |  | 0.13 µM [falling, full curve, poor fit] | 
COc1ccc(C=O)cc1OS(=O)(=O)c1ccccc1[N+](=O)[O-] | -17.5% | 0.259 µM [falling, full curve] | 
COc1ccc2c(c1)cc(C(=O)N[C@@H](Cc1ccccc1)C(=O)N[C@@H](C)C(=O)O)n2C | 3.55% |  | 
C/C=C/c1cc(CN2CCN(c3ccccc3)CC2)c(O)c(OC)c1 | 4.74% |  | 
COc1ccc(C(=O)NN2C(=O)C3C(c4ccccc4)C=CC(c4ccccc4)C3C2=O)cc1 (stereo not given) | -15% | 16.4 µM [falling, single point] | 
COc1ccccc1CN(C)C(=O)CN1CCN(CC(=O)Nc2ccccc2Cl)CC1 | -22.3% | 0.103 µM [rising, full curve, poor fit] | 
COc1ccc(-c2cc(C(=O)NC3CC3)c3ccccc3n2)cc1 | 24.4% | 4.61 µM [rising, single point] | 
CCc1ccc(CC2S/C(=C(\C#N)C(C)=O)NC2=O)cc1 (stereo not given) | -80.6% |  | 18.4 µM [falling, partial curve]
CCCCn1c(N)c(N(CC(C)C)C(=O)c2cc(S(=O)(=O)N3CCCCC3)ccc2C)c(=O)[nH]c1=O | -19.1% |  | 
COc1ccc(CC(=O)NNS(=O)(=O)c2ccc([N+](=O)[O-])cc2)cc1OC | 6.09% | 6.51 µM [falling, single point] | 

14 compounds out of the list, arranged by formula weight, smallest number first:
SMILES | cell number change | AC50 [1] | AC50 [2]
CC(=O)C1=C(S(=O)(=O)c2ccc(C)cc2)CS(=O)(=O)C1 | -37.7% | 0.116 µM [falling, full curve, poor fit] | 0.411 µM [falling, partial curve]
C/C=C/c1cc(CN2CCN(c3ccccc3)CC2)c(O)c(OC)c1 | 4.74% |  | 
Cc1cccc(NC(=O)CS(=O)(=O)c2c[nH]c3ccccc23)c1C | -21.5% | 18.4 µM [falling, partial curve] | 
Cc1cccc(-n2cnc3cc(C(=O)N4CCc5ccccc54)ccc32)c1 | -13.8% | 23.1 µM [falling, partial curve] | 
Cc1oc2cc3oc(=O)c(CC(=O)NCCC(=O)O)c(C)c3cc2c1C | 8.33% |  | 
Cc1ccnc2nc(C(=O)Nc3cc(Cl)ccc3N3CCOCC3)nn12 | -14.7% | 9.2 µM [falling, partial curve] | 
COC(=O)c1ccc(Cn2c(CN3CCOCC3)nc3ccccc3c2=O)o1 | 13.2% | 29.1 µM [rising, single point] | 
COc1ccc(CC(=O)NNS(=O)(=O)c2ccc([N+](=O)[O-])cc2)cc1OC | 6.09% | 6.51 µM [falling, single point] | 
O=C(NS(=O)(=O)Oc1ccc(F)cc1F)OC[C@@H]1CCCN2CCCCC12 (stereo not given in full) | -16.2% |  | 
Cc1ccc(CN2CCN(Cc3cnc(N4CCOCC4)s3)CC2CCO)o1 (stereo not given) | 14.4% | 14.6 µM [rising, single point] | 
Cc1cc(Br)ccc1OCC(=O)NNC(=O)c1ccc(NC(=O)C2CC2)cc1 | 21.5% | 0.082 µM [rising, full curve, poor fit] | 0.326 µM [rising, partial curve, poor fit]
COc1ccc2cc(CN(CC3CCCO3)S(=O)(=O)c3ccc(C(C)=O)cc3)c(=O)[nH]c2c1 (stereo not given) | 71.8% | 6.51 µM [falling, single point] | 29.1 µM [rising, single point]
CCOc1ccc(NC(=O)[C@@H]2CCCN2C(=O)c2cccs2)cc1S(=O)(=O)N1CCCCC1 |  | 0.13 µM [falling, full curve, poor fit] | 
CC(C)[C@@H](NC(=O)OC(C)(C)C)C(=O)NCC1CCC(C(=O)N[C@@H](Cc2ccccc2)C(=O)O)CC1 (stereo not given in full) | 80.6% |  | 29.1 µM [rising, partial curve]

(continued)

SMILES | cell number change | AC50 [1] | AC50 [2]
COCCCNC(=S)NC1CCCCC1 | 41.3% | 23.1 µM [rising, single point] | 23.1 µM [rising, single point]
O=C(CCS(=O)(=O)c1ccccc1)Nc1nc(-c2cccs2)cs1 | 21.3% | 14.6 µM [falling, partial curve] | 
O=C(CN1C(=O)/C(=C2\SC(=S)N(CCS(=O)(=O)O)C2=O)c2ccccc21)Nc1cccc(Br)c1 | -5.46% | 29.1 µM [falling, single point] | 
COc1cccc(/C=N/Nc2ccc([N+](=O)[O-])cn2)c1O | -61.4% | 4.61 µM [falling, full curve] | 6.51 µM [falling, full curve]
Cc1ccc(O)c(NC(=S)NC(=O)COc2ccc(Br)cc2)c1 | -25.5% | 29.1 µM [falling, single point] | 
CCn1c(SCC(=O)N2CCCCC2)nnc1-c1ccc(S(=O)(=O)N2CCN(C)CC2)cc1 | -7.29% | 4.11 µM [falling, single point] | 
Cc1ccc(C(=O)NC(C)c2ccncc2)o1 (stereo not given) | 25.9% | 0.651 µM [rising, full curve, poor fit] | 
O=C1OCCC1Sc1nc2ccccc2n1Cc1ccccc1 (stereo not given) | -17.8% |  | 0.92 µM [falling, full curve, poor fit]
O=C1COc2ccc(-c3n[nH]c(=O)c4ccccc34)cc2N1 | -74.6% |  | 
CN(C)CCNC(=O)CNC(=S)N(Cc1ccccc1)Cc1cccnc1 | -0.569% | 2.31 µM [rising, partial curve, poor fit] | 
COc1ccc(S(N)(=O)=O)cc1C(=O)NCC(C)(C)N1CCCCC1 | -3.42% | 0.731 µM [falling, full curve, poor fit] | 
Cc1nnc(NC(=O)C(C)Sc2nnc(CCNC(=O)c3ccccc3F)n2C)s1 (stereo not given) | 9.83% |  | 
COc1cc(OC)cc(N(C(=O)c2snc(C(N)=O)c2N)C(C(=O)NCC2CCCO2)c2ccc(C)o2)c1 (stereo not given) | 23.9% | 4.61 µM [falling, partial curve] | 
COc1ccc(CN2CCNC(=O)C2CC(=O)NCC2CCOCC2)cc1C (stereo not given) | 14.2% |  | 
Cc1ccc(S(=O)(=O)CCC(=O)OCC(=O)Nc2cc(F)ccc2C)cc1 |  | 1.84 µM [rising, partial curve] | 0.731 µM [rising, partial curve, poor fit]
COc1ccc(NC(=O)CNC(=O)c2nn(-c3ccc(OC)c(Cl)c3)c(=O)c3ccccc23)c(OC)c1 | 338% |  | 23.1 µM [rising, partial curve]
COc1cc(C(=O)CCN2CCC(c3ccccc3)C2)cc(OC)c1OC (stereo not given) | 1.01% | 10.3 µM [falling, partial curve, poor fit] | 
Cc1ccc(CCNC(=O)CCS(=O)(=O)c2ccc(Br)cc2)cc1 | 23.5% | 0.116 µM [rising, full curve, poor fit] | 
CCOc1cc(/C=C2\N=C(SCC)SC2=O)cc([N+](=O)[O-])c1OC(C)=O | 19.9% | 6.51 µM [falling, single point] | 
